Among the data in PubChem BioAssay AID493014 (National Center for Advancing Translational Sciences (NCATS), 2011) are AC50 values, retold here.

Broadly, the AC50 is the concentration at which the activity in the assay is half-maximal.

The list shows a part of the results. The main result of the screen is listed elsewhere. These columns were measured beside it and carry no call. Compounds called inactive in the main read-out are mostly missing here. Words in brackets tell the shape of the fitted curve; partial curves, single points and poor fits give uncertain potencies.

A short description of the assay: qHTS Assay to Find Inhibitors of Chronic Active B-Cell Receptor Signaling. Particulars: ABC-DLBCL IkBa-CBG/CBR reporter, luminescence ratio (green luciferase fused to IkBa over red control in TMD8 lymphoma cells), 4 h. In short, it runs like this:
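TMD8 human ABC-DLBCL cells with doxycycline-inducible IκBα–green luciferase fusion and unfused red luciferase, in 0.5% FBS medium; compounds up to 46 uM, 4 h at 37C. Green/red luminescence ratio, filter-overlap corrected, fitted to concentration-response curves.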
(In general: In qHTS, concentration-response curves come from the screen itself.)

[1] abbreviates: measured here: CBR red luminescence, cell number.
The mark [2] stands for this setting: measured here: IkBa-CBG green luminescence.

For `O=C(NNS(=O)(=O)c1ccccc1)c1cnn(-c2ccccc2)c1-n1cccc1`, the AC50 under setting [1] is 11.2 µM [falling, partial curve, poor fit].
Turning to `CC(C)n1c2ccccc2c2cc([N+](=O)[O-])ccc21`, the AC50 under setting [1] was 29.1 µM [rising, single point].
`CCOc1cccc2sc(NC(=O)c3ccc(Br)s3)nc12`: the AC50 by setting is: under setting [1], 0.0092 µM [falling, full curve]; under setting [2], 0.731 µM [rising, full curve, poor fit].
For `Cc1ccccc1OCc1nnc(SCC(=O)Nc2ccc3c(c2)oc2ccccc23)n1C`, the AC50 under setting [1] is 6.51 µM [falling, single point].
As for `Nc1cc(N)nc(SCC(=O)Nc2ccccc2)n1`, the AC50 under setting [1] was 16.4 µM [rising, single point].
As to `CC(C)Oc1ccc(CNC(=O)Cn2c(=O)c3cccn3c3cccnc32)cc1`, the AC50 under setting [1] is 14.1 µM [rising, single point].
Take `CC(=O)C1=C(C)NC(SCC(=O)c2ccccc2)=C(C#N)C1CC(C)C` (centres undefined): the AC50 under setting [1] was 10.3 µM [rising, partial curve, poor fit].
Take `Cc1ccccc1NC(=O)/C(C#N)=C\c1cc(C)n(-c2ccc(C(=O)O)cc2)c1C`: under setting [1], the AC50 was 3.55 µM [rising, partial curve, poor fit].
Take `COc1cccc(NC(=O)CSc2nccn(-c3ccc4c(c3)OCCO4)c2=O)c1`: the AC50 under setting [1] is 29.1 µM [falling, partial curve, poor fit].
On the same count and under the same terms, the same measure for `Cc1c(CNCCc2ccc(Cl)cc2)c(C(=O)O)c(C)n1Cc1ccccc1`: 6.31 µM [rising, partial curve, poor fit].
Turning to `O=C(Nc1ccsc1C(=O)O)c1ccccc1Cl`, under setting [1], the AC50 is 35.5 µM [falling, single point].
Turning to `CS(=O)(=O)NCCSc1cc(C(F)(F)F)nc2ccccc12`, the AC50 under setting [1] is 7.08 µM [rising, full curve, poor fit].
`CCOC(=O)c1cnc(-n2nc(C)cc2C)nc1Oc1ccc(C(=O)OC)cc1`: the half-maximal activity concentration (AC50) under setting [1] is 0.398 µM [rising, partial curve, poor fit].
Regarding `CCOC(=O)/C(C(=O)Nc1ccccc1Cl)=C1/NC(C)(C)Cc2ccccc21`, the AC50 under setting [1] was 23.1 µM [rising, partial curve, poor fit].
Still for that read-out and setting: the value for `Cc1ccc2c(Cl)cc(Cl)c(OCC(=O)N3CCCC3)c2n1` was 11.2 µM [rising, partial curve, poor fit]; that for `COc1ccccc1NC(=O)c1c(NCc2ccc(C)o2)sc2c1CCC(C)C2` (centres undefined) was 35.5 µM [falling, single point]; that for `COc1ccc(-n2cc3ccc([N+](=O)[O-])cc3n2)cc1` was 0.251 µM [rising, full curve, poor fit].
Same read-out and setting: the same measure for `CC(Oc1ccc(Cl)cc1)C(=O)NNC(=S)NC(=O)c1ccco1` (centres undefined): 20.6 µM [rising, single point].
For `Cc1cccc(C(=O)N2CCN(c3ccc([N+](=O)[O-])c(N4CCOCC4)c3)CC2)c1`, the AC50 under setting [1] is 12.6 µM [falling, partial curve, poor fit].
For `COc1ccc(-c2nc3cc(NC(=O)Cc4ccc(OC)c(OC)c4)ccc3o2)cc1`, the AC50 under setting [1] is 1.16 µM [rising, full curve].
The same measure, in the same setting: the value for `CC(=O)Nc1ccc(OC(=O)c2cccs2)cc1` was 29.1 µM [rising, single point]; that for `O=[N+]([O-])c1cccnc1NCCc1ccccc1` was 5.01 µM [rising, single point].
With `COc1ccc(/C=C/C(=O)c2ccccc2)cc1Cn1nnc2ccccc21`, the AC50 is 7.31 µM [falling, partial curve] under setting [1] and 29.1 µM [rising, single point] under setting [2].
`O=C1CCCN1CCCNS(=O)(=O)c1ccc(Cl)c(C(=O)N2CCOCC2)c1`: the AC50 under setting [1] is 32.6 µM [rising, single point].
Same read-out and setting: the value for `Cc1ccc(CNC(=O)C(=O)NCCC2CCCCN2S(=O)(=O)c2ccc(C)cc2)cc1` (centres undefined) was 32.6 µM [falling, single point].
Consider `CCN1C(=O)C2(Nc3ccccc3-c3nc4ccccc4n32)c2cc(OC)ccc21` (centres undefined), for which the half-maximal activity concentration (AC50) under setting [1] is 35.5 µM [falling, single point].
On to `O=C(CCCN1C(=O)/C(=C/c2ccccc2Cl)SC1=S)NNC(=O)c1ccccc1Cl`, for which the AC50 under setting [1] is 2.31 µM [falling, full curve, poor fit].
On the same count and under the same terms, the same measure for `O=C(COC(=O)/C=C/c1ccc2c(c1)OCO2)NC1CCS(=O)(=O)C1` (centres undefined): 35.5 µM [falling, single point]; for `COc1ccc(Cl)cc1NC(=O)CN(C)C(=O)CNC(=O)C12CC3CC(CC(C3)C1)C2`: 29.1 µM [falling, single point]; for `Cn1c(CN2CCN(CC#N)CC2)c(C#N)c2ccccc21`: 4.11 µM [falling, single point].
In the case of `COC(=O)c1ccc(C2C(C(=O)c3cc4ccccc4o3)=C(O)C(=O)N2CCCN(C)C)cc1` (centres undefined), under setting [1], the AC50 is 22.4 µM [falling, single point].
Regarding `O=C(O)c1ccc(N2CCCCCC2)c(N2C(=O)c3ccccc3C2=O)c1`, the AC50 under setting [1] was 29.1 µM [rising, partial curve, poor fit].
Same read-out and setting: the same measure for `CC(C)(Oc1ccc(Cl)cc1)C(=O)O/N=C(\N)c1ccncc1`: 8.91 µM [rising, partial curve]; for `CCN(CC(=O)Nc1ccc(OC)cc1)C(=O)CSCc1c(C)noc1C`: 0.731 µM [rising, partial curve, poor fit]; for `COc1ccc(/C=N\NC(=O)c2ccc(F)cc2)cc1COc1cc(F)ccc1[N+](=O)[O-]`: 15.8 µM [falling, single point].
For `CN(C)c1nc(C(F)(F)F)cc(=O)[nH]1`, the AC50 under setting [1] is 20 µM [rising, partial curve, poor fit].
On to `CO/N=C/C(=N\Nc1ccccc1)C(=O)c1ccccc1`, for which the half-maximal activity concentration (AC50) under setting [1] is 3.16 µM [rising, full curve, poor fit].
`O=C/C=C/c1c(-c2ccccc2)cc2oc3ccccc3cc1-2`: the AC50 under setting [1] is 12.6 µM [falling, single point].
With `COc1ccc2nc(/N=C(\N)NC(=O)C(C)(C)C)nc(C)c2c1`, under setting [1], the AC50 is 0.501 µM [rising, full curve, poor fit].
Turning to `COc1ccc(/C=N/NC(=O)c2cccnc2)cc1COc1ccc([N+](=O)[O-])c(C)c1`, under setting [1], the AC50 is 35.5 µM [falling, single point].
In the case of `OCCNc1nc2ccccc2n1-c1ccccc1`, the AC50 under setting [1] was 32.6 µM [falling, single point].
In the case of `Cc1ccc2c(Cl)c(C(=O)NC3CC3)sc2c1`, under setting [1], the AC50 is 0.1 µM [rising, full curve, poor fit].
Same read-out and setting: the value for `Cc1ccc(NC(=O)COc2ccc(/C=N/NC(=O)CSCc3ccccc3)cc2)cc1` was 9.2 µM [rising, partial curve, poor fit]; that for `CC(C)C(=O)Nc1c(-c2ccccc2F)c(=O)c2ccccc2n1C` was 6.31 µM [falling, single point].
On to `CC(C)COC(=O)/C(C#N)=C/c1c[nH]c2ccccc12`, for which the AC50 under setting [1] is 0.206 µM [rising, full curve, poor fit].
As for `O=C(COC(=O)c1ccc(F)cc1F)NC(=O)Nc1ccc2c(c1)OCCO2`, the half-maximal activity concentration (AC50) under setting [1] is 0.651 µM [falling, single point].
`N#C/C(=C(/O)c1ccc(Cl)c([N+](=O)[O-])c1)c1nc2ccccc2[nH]1`: the AC50 under setting [1] is 2.51 µM [falling, full curve, poor fit].
As to `Oc1[nH]c2ccccc2c1N=Nc1c(F)c(F)c(Cl)c(F)c1F`, the AC50 under setting [1] was 17.8 µM [falling, single point].
On the same count and under the same terms, the same measure for `C=CCn1c(SCC(=O)c2ccc(CNC(C)=O)o2)nc2scc(C3CC3)c2c1=O`: 14.6 µM [rising, partial curve].
As to `Oc1ccccc1NCC(O)Cn1ccc2ccccc21` (centres undefined), under setting [1], the AC50 was 2.24 µM [falling, full curve].
`COc1cccc(C2c3[nH]c4ccccc4c3C[C@H]3C(=O)N(C4CC4)CC(=O)N23)c1` (some centres undefined): the AC50 under setting [1] is 4.47 µM [falling, partial curve].
On to `COc1ccccc1NC(=O)c1cccc(N2C(=O)C3C4C=CC(C4)C3C2=O)c1` (centres undefined), for which the AC50 under setting [1] was 7.94 µM [falling, partial curve].
Consider `COc1ccc(C(=O)Nc2sc(C)c(C)c2CN2CC(C)OC(C)C2)cc1` (centres undefined), for which the AC50 under setting [1] is 0.0366 µM [falling, full curve, poor fit].
The same measure, in the same setting: the same measure for `Cc1nn(C(C)(C)C)c(OC(=O)c2cccs2)c1S(=O)(=O)c1ccccc1`: 29.1 µM [falling, single point]; for `CCC/C(C)=N\Nc1nc2c(c(=O)n(C)c(=O)n2C)n1C`: 7.94 µM [falling, partial curve, poor fit]; for `COC(=O)Cc1[nH]nc2c1C(c1cccc(OC)c1OC)C(C#N)=C(N)O2` (centres undefined): 12.6 µM [falling, partial curve].
`CC(C)(C)c1ccccc1NC(=O)c1ccc2c(c1)SC1=NS(=O)(=O)CCN12`: the AC50 under setting [1] was 0.1 µM [rising, full curve, poor fit].
The same measure, in the same setting: the value for `COC(=O)c1c(C)noc1-c1cc(C)on1` was 16.4 µM [rising, partial curve, poor fit]; that for `COC(=O)c1c(NC(=O)CSc2ccccc2N)sc(C)c1C` was 15.8 µM [falling, partial curve, poor fit]; that for `CCCCn1c(=N)n(CC(=O)c2ccc(OC)cc2)c2ccccc21` was 11.2 µM [falling, partial curve].
On the same count and under the same terms, the value for `O=S(=O)(c1ccccc1)c1nc(Nc2cccc(O)c2)sc1Cl` was 11.6 µM [falling, partial curve, poor fit].
Consider `O=C(Nc1ccc(N2CCN(C(=O)c3cccs3)CC2)cc1)c1ccc([N+](=O)[O-])o1`, for which the half-maximal activity concentration (AC50) under setting [2] is 3.55 µM [falling, partial curve, poor fit].
